Assay results taken from PMC8042451.

Protein sequences, listed by entry. Tags and fused reporters are not part of them. Lines headed by an entry give the natural chain unless they say otherwise; changes in a name come on top.
UniProt Q8TEW0: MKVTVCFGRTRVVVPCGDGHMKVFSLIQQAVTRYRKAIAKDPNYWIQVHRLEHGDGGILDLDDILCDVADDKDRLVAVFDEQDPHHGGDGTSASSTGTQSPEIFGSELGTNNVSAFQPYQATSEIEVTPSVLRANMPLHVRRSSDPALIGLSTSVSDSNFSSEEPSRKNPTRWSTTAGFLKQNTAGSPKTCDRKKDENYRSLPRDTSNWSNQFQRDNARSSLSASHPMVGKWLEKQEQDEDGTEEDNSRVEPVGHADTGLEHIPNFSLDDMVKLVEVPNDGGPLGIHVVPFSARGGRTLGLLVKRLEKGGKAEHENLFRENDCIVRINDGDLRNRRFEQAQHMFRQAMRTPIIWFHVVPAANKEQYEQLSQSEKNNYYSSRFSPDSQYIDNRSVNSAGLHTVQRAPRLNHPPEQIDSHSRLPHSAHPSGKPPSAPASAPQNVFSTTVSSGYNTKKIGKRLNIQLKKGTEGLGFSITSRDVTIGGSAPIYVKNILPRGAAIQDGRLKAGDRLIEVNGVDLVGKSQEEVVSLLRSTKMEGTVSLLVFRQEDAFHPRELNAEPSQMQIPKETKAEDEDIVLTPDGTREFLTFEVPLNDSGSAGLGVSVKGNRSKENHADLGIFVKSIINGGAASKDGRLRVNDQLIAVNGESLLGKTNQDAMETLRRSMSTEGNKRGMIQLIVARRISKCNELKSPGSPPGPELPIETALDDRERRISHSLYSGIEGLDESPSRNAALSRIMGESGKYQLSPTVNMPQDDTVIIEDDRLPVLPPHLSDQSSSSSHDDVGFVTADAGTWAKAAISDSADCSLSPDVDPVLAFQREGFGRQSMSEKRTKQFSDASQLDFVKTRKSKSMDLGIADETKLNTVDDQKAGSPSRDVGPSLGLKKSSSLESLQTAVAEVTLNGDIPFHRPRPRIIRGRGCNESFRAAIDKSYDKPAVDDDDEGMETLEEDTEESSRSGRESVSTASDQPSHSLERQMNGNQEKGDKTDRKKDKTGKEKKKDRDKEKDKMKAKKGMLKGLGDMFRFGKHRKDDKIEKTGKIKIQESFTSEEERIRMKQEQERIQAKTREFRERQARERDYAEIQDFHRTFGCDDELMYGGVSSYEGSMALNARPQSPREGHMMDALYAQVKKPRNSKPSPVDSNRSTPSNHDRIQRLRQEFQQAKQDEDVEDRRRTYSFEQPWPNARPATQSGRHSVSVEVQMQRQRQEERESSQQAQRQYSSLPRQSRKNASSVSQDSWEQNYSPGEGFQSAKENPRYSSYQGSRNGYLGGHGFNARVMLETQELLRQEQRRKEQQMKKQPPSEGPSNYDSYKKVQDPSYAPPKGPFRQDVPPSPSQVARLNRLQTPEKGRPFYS
UniProt A0A2R8QCI3: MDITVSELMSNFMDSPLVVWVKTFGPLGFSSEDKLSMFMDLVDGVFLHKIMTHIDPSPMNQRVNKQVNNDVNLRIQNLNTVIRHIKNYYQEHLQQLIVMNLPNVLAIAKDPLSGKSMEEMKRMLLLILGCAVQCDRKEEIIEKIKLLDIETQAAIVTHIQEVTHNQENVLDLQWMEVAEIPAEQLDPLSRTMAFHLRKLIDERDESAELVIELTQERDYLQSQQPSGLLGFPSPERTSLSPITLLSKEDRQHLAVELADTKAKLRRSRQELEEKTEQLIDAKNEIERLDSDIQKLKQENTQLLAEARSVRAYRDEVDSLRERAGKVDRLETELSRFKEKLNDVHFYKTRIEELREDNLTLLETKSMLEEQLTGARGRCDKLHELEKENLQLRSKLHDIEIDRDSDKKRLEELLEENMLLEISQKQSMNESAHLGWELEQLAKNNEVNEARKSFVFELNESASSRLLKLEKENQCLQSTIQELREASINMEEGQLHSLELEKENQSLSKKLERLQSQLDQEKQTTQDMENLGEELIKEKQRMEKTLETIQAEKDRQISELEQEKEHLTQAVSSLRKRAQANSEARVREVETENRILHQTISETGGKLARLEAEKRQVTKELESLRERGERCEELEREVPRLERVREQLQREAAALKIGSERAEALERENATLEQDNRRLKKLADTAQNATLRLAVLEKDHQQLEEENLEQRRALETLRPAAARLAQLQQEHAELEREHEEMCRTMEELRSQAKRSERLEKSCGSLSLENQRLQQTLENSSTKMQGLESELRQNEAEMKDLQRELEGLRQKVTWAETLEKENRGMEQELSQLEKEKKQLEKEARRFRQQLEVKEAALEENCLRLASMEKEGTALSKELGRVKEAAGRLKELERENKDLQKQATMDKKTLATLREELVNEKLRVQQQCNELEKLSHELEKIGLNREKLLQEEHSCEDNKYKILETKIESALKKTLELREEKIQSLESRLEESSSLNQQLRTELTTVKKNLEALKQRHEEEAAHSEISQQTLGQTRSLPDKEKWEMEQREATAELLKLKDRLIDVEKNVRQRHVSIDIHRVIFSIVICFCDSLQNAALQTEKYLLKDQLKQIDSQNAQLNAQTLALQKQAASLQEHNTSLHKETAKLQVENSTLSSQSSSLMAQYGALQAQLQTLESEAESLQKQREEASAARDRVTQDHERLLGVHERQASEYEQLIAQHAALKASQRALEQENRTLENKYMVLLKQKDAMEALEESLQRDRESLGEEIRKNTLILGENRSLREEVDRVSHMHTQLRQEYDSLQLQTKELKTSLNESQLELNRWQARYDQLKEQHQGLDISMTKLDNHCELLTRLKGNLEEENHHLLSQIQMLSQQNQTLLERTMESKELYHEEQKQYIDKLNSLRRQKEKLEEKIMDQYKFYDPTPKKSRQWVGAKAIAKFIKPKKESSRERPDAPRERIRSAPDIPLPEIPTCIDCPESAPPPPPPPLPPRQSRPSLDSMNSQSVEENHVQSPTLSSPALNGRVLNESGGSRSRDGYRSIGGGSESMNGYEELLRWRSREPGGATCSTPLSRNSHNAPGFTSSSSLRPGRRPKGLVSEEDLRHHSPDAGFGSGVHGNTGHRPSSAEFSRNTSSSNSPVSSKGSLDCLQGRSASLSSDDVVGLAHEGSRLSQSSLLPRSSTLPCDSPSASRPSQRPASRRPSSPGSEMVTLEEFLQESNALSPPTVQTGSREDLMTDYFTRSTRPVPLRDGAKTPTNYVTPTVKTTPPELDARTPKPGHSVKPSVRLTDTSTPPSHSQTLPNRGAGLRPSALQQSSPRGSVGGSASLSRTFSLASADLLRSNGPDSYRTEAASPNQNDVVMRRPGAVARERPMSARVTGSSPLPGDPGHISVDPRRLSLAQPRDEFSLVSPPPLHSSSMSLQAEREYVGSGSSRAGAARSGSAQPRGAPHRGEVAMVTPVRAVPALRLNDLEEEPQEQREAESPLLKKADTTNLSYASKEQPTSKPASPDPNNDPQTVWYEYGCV

Biological target: GST-tagged PDZ domains of ParD3 (UniProt Q8TEW0)
Assay: pull-down; purified GST-tagged PDZ domains of ParD3 or Dvl immobilised on glutathione-Sepharose beads; lysates of transfected HEK293T cells; binding 4 h at 4 °C; immunoblot; only the target purified

“EGFP-tagged C terminus of zebrafish Daple (from UniProt A0A2R8QCI3) (domain or fragment)” was tested, and the binding was “binds”.

No constants are given. Whether binding was seen depends on the method and setting. In cells and extracts the contact can be indirect. Binding calls can cover weak binding; strength is not graded here.
